Measured values reported in paper PMC4890496.

Tested on: NtARF8-His (Nicotiana tabacum (cv. NC89))
Assay: EMSA
Conditions: not stated (EMSA by previously described methods, ref 47); recombinant protein; label: biotin

Sequence: CATTATTTACGTAGATGTTTTCCTG (double strand) [mutant probe]
- binding result: no binding

Sequence: CATTATTTACGTGTCTGTTTTCCTG (double strand) [WT probe (TGTCT auxin response element)]
- binding result: binds

Construct, isoform or probe ends are uncertain for at least one entry. No signal at the amounts used counts as a negative.
